Experimental data taken from doi:10.1101/2020.10.06.328641.
No constants are given. Whether binding was seen depends on the method and setting. Binding seen in cells or lysates may run through a third protein. These calls come from enrichment with a bait or labelling near it, and not all partners need be listed.

B1: OASL (protein, UniProt Q15646 1-514)
chain: MALMQELYSTPASRLDSFVAQWLQPHREWKEEVLDAVRTVEEFLRQEHFQGKRGLDQDVRVLKVVKVGSFGNGTVLRSTREVELVAFLSCFHSFQEAAKHHKDVLRLIWKTMWQSQDLLDLGLEDLRMEQRVPDALVFTIQTRGTAEPITVTIVPAYRALGPSLPNSQPPPEVYVSLIKACGGPGNFCPSFSELQRNFVKHRPTKLKSLLRLVKHWYQQYVKARSPRANLPPLYALELLTIYAWEMGTEEDENFMLDEGFTTVMDLLLEYEVICIYWTKYYTLHNAIIEDCVRKQLKKERPIILDPADPTLNVAEGYRWDIVAQRASQCLKQDCCYDNRENPISSWNVKRARDIHLTVEQRGYPDFNLIVNPYEPIRKVKEKIRRTRGYSGLQRLSFQVPGSERQLLSSRCSLAKYGIFSHTHIYLLETIPSEIQVFVKNPDGGSYAYAINPNSFILGLKQQIEDQQGLPKKQQQLEFQGQVLQDWLGLGIYGIQDSDTLILSKKKGEALFPAS
B2: KSHV ORF59, DNA polymerase processivity factor (protein, UniProt F5HID2 1-396)
chain: MPVDFHYGVRVDVTLLSKIRRVNEHIKSATKTGVVQVHGSACTPTLSVLSSVGTAGVLGLRIKNALTPLVGHTEGSGDVSFSFRNTSVGSGFTHTRELFGANVLDAGIAFYRKGEACDTGAQPQFVRTTISYGDNLTSTVHKSVVDQKGILPFHDRMEAGGRTTRLLLCGKTGAFLLKWLRQQKTKEDQTVTVSVSETLSIVTFSLGGVSKIIDFKPETKPVSGWDGLKGKKSVDVGVVHTDALSRVSLESLIAALRLCKVPGWFTPGLIWHSNEILEVEGVPTGCQSGDVKLSVLLLEVNRSVSAEGGESSQKVPDSIPDSRRQPELESPDSPPLTPVGPFGPLEDASEDAASVTSCPPAAPTKDSTKRPHKRRSDSSQSRDRGKVPKTTFNPLI

Target: ORF20-BirA (KSHV ORF20 with the BirA R118G biotin ligase fused at its C-terminus) (KSHV (human herpesvirus 8))
Test: proximity labelling

Binder | binding
B1 | binds
B2 | binds
